These results are taken from the supplement of paper PMC3682954.

The subject of the experiment is RAW 264.7. Description: HMGB1-induced TNF-alpha production relative to HMGB1-stimulated control; higher = more TNF-alpha secretion (less inhibition). The settings on record: stimulus: HMGB1 5 ug/ml, 18 h.
The mark [1] stands for this setting: compound concentration: 1 ug/ml.

Values joined by “and” are separate entries in the source; they are usually repeats but may differ in a detail not shown here. Equal values may be shown once. Where a name gives a salt, the structure may show the parent alone. ± gives the standard deviation of the averaged measurements. The list shows a part of the results. Many values rest on one well or one pass, so single values are uncertain.

As for `O=c1[nH]c(=O)n(C2CCCO2)cc1F` (centres undefined), the “HMGB1-induced TNF-alpha production” value (compound concentration: 3 uM) was found to be 88.4%.
For `CC(NCCC(c1ccccc1)c1ccccc1)c1ccccc1` (centres undefined), the “HMGB1-induced TNF-alpha production” value (compound concentration: 3 uM) amounted to 75.8%.
`CC(NCCC(c1ccccc1)c1ccccc1)c1ccccc1` (centres undefined) [Fendiline hydrochloride]: for the setting “compound concentration: 3 uM”, the “HMGB1-induced TNF-alpha production” value is 63.7%.
Consider `Nc1nc2ccc(Cl)cc2c2nc(-c3ccco3)nn12`, for which the “HMGB1-induced TNF-alpha production” value (compound concentration: 3 uM) was 83.3% and 103%.
As to `NC(=O)[C@@H]1CCCN1` [L-Prolinamide], the “HMGB1-induced TNF-alpha production” value under setting [1] stood at 68.9%.
Consider `CCC(C)N(C)C(=O)c1cc2ccccc2c(-c2ccccc2Cl)n1` (centres undefined), for which, for the setting “compound concentration: 3 uM”, the “HMGB1-induced TNF-alpha production” value was determined as 62.9%.
As to `COc1c2occc2c(OC)c2c(=O)cc(C)oc12`, under “compound concentration: 3 uM”, the “HMGB1-induced TNF-alpha production” value amounted to 82.6%.
`COc1c2occc2c(OC)c2c(=O)cc(C)oc12` [Khellin]: the “HMGB1-induced TNF-alpha production” value is, setting by setting: under setting [1], 68.4%; (compound concentration: 3 uM) 77.9%.
With `C1CNCCN1`, the “HMGB1-induced TNF-alpha production” value (compound concentration: 3 uM) was 103%.
In the case of `COc1ccc2[nH]cc(CC(N)C(=O)O)c2c1` (racemic) [DL-5-Methoxytryptophan], under setting [1], the “HMGB1-induced TNF-alpha production” value was determined as 50.7%.
In the case of `Nc1cc(C(Cl)=C(Cl)Cl)c(S(N)(=O)=O)cc1S(N)(=O)=O` [Clorsulon], the “HMGB1-induced TNF-alpha production” value (compound concentration: 3 uM) was found to be 61.8%.
Take `Nc1cc(C(Cl)=C(Cl)Cl)c(S(N)(=O)=O)cc1S(N)(=O)=O`: under “compound concentration: 3 uM”, the “HMGB1-induced TNF-alpha production” value amounted to 89.9 ± 5%.
Regarding `CC[C@H](C)C(=O)O[C@H]1CCC=C2C=C[C@H](C)[C@H](CC[C@@H]3C[C@@H](O)CC(=O)O3)[C@H]21` [Mevastatin], where the note is “compound concentration: 3 uM”, the “HMGB1-induced TNF-alpha production” value was 122 ± 29%.
With `CC[C@H](C)C(=O)O[C@H]1CCC=C2C=C[C@H](C)[C@H](CC[C@@H]3C[C@@H](O)CC(=O)O3)[C@H]21`, the “HMGB1-induced TNF-alpha production” value (compound concentration: 3 uM) came to 97.9%.
As for `CC[C@H](C)C(=O)O[C@H]1CCC=C2C=C[C@H](C)[C@H](CC[C@@H]3C[C@@H](O)CC(=O)O3)[C@H]21` [mevastatin], the “HMGB1-induced TNF-alpha production” value (compound concentration: 3 uM) worked out at 129%.
With `C[C@H](CCC(=O)O)[C@H]1CC[C@H]2[C@@H]3[C@H](O)C[C@@H]4C[C@H](O)CC[C@]4(C)[C@H]3CC[C@]12C`, the “HMGB1-induced TNF-alpha production” value (compound concentration: 3 uM) was found to be 99%.
On the same count and under the same terms, to `C[C@H](CCC(=O)O)[C@H]1CC[C@H]2[C@@H]3[C@H](O)C[C@@H]4C[C@H](O)CC[C@]4(C)[C@H]3CC[C@]12C` [Chenodiol] belongs 54.7%; to `CN1CCN(c2c(F)cc3c(=O)c(C(=O)O)cn(CCF)c3c2F)CC1` [Fleroxacin], 92.581 ± 0.0042%; to `Nc1ncnc2c1c(I)cn2[C@@H]1C[C@H](N)[C@@H](O)[C@H]1O`, 84.3%.
With `NNc1nncc2ccccc12`, the “HMGB1-induced TNF-alpha production” value (compound concentration: 3 uM) came out at 104%.
On to `NNc1nncc2ccccc12` [Hydralazine hydrochloride], for which the “HMGB1-induced TNF-alpha production” value (compound concentration: 3 uM) turned out to be 83.5 ± 1.9%.
With `CC(=O)OCC(CCn1cnc2cnc(N)nc21)COC(C)=O`, the “HMGB1-induced TNF-alpha production” value (compound concentration: 3 uM) was 101 ± 18%.
For the compound `CC(=O)OCC(CCn1cnc2cnc(N)nc21)COC(C)=O` [Famciclovir], the “HMGB1-induced TNF-alpha production” value (compound concentration: 3 uM) was determined as 90.9 ± 15%.
Still for that read-out and setting: to `O=C(/C=C/c1ccc(O)c(O)c1)OCCc1ccccc1` [Caffeic acid phenethyl ester] belongs 51.5%; to `NCC(O)CC(=O)O` (centres undefined), 81.1%.
Regarding `CN1CCN(CCCN2c3ccccc3Sc3ccc(Cl)cc32)CC1` [Prochlorperazine dimaleate], the “HMGB1-induced TNF-alpha production” value (compound concentration: 3 uM) came out at 73.5 ± 18%.
With `CN1CCN(CCCN2c3ccccc3Sc3ccc(Cl)cc32)CC1`, where the note is “compound concentration: 3 uM”, the “HMGB1-induced TNF-alpha production” value is 84.2% and 92.5%.
For the compound `Cc1nc(=O)c2cc(CN(C)c3ccc(C(=O)N[C@@H](CCC(=O)O)C(=O)O)s3)ccc2[nH]1`, for the setting “compound concentration: 3 uM”, the “HMGB1-induced TNF-alpha production” value was 94.7%.
For `O=C1c2ccccc2C(=O)c2c1ccc(O)c2O` [Alizarin], the “HMGB1-induced TNF-alpha production” value under setting [1] is 84.6%.
For the compound `O=c1oc2ccccc2c(O)c1Cc1c(O)c2ccccc2oc1=O` [Dicumarol], the “HMGB1-induced TNF-alpha production” value (compound concentration: 3 uM) came out at 88.9%.
Turning to `O=c1oc2ccccc2c(O)c1Cc1c(O)c2ccccc2oc1=O`, the “HMGB1-induced TNF-alpha production” value (compound concentration: 3 uM) worked out at 79.6%.
As for `Cn1ccc2cc(NC(=O)Nc3cccnc3)ccc21`, the “HMGB1-induced TNF-alpha production” value (compound concentration: 3 uM) worked out at 91.7%.
Consider `CC(=O)[C@]1(O)Cc2c(O)c3c(c(O)c2[C@@H](O[C@H]2C[C@H](N)[C@H](O)[C@H](C)O2)C1)C(=O)c1ccccc1C3=O`, for which, where the note is “compound concentration: 3 uM”, the “HMGB1-induced TNF-alpha production” value is 6.07%.
With `CC(=O)[C@]1(O)Cc2c(O)c3c(c(O)c2[C@@H](O[C@H]2C[C@H](N)[C@H](O)[C@H](C)O2)C1)C(=O)c1ccccc1C3=O` [Idarubicin], the “HMGB1-induced TNF-alpha production” value (compound concentration: 3 uM) turned out to be 15.4 ± 6.2%.
Consider `NC(=O)NCCCC(N)C(=O)O` (stereo not drawn) [L(+)-Citrulline], for which the “HMGB1-induced TNF-alpha production” value under setting [1] turned out to be 82%.
In the case of `OC[C@H]1O[C@@H](Oc2cc(O)cc(/C=C/c3ccc(O)cc3)c2)[C@H](O)[C@@H](O)[C@@H]1O`, the “HMGB1-induced TNF-alpha production” value (compound concentration: 3 uM) came to 103%.
Turning to `CC(C)C[C@@H](NC(=O)[C@H](C)NC(=O)CNC(=O)[C@@H](NC=O)C(C)C)C(=O)N[C@@H](C)C(=O)N[C@@H](C(=O)N[C@H](C(=O)N[C@H](C(=O)N[C@@H](Cc1c[nH]c2ccccc12)C(=O)N[C@H](CC(C)C)C(=O)N[C@@H](Cc1c[nH]c2ccccc12)C(=O)N[C@H](CC(C)C)C(=O)N[C@@H](Cc1c[nH]c2ccccc12)C(=O)N[C@H](CC(C)C)C(=O)N[C@@H](Cc1c[nH]c2ccccc12)C(=O)NCCO)C(C)C)C(C)C)C(C)C`, the “HMGB1-induced TNF-alpha production” value (compound concentration: 3 uM) stood at 48.7%.
In the case of `COc1ccc(C2CNC(=O)C2)cc1OC1CCCC1` (centres undefined), under “compound concentration: 3 uM”, the “HMGB1-induced TNF-alpha production” value was determined as 76.8 ± 24%.
On to `COc1ccc(C2CNC(=O)C2)cc1OC1CCCC1` (centres undefined) [Rolipram], for which the “HMGB1-induced TNF-alpha production” value (compound concentration: 3 uM) amounted to 61.4 ± 6.2%.
On to `O=c1c(O)c(-c2ccc(O)cc2O)oc2cc(O)cc(O)c12` [Morin hydrate], for which, under setting [1], the “HMGB1-induced TNF-alpha production” value is 78.4%.
Turning to `O=c1c(O)c(-c2ccc(O)cc2O)oc2cc(O)cc(O)c12` [Morin], where the note is “compound concentration: 3 uM”, the “HMGB1-induced TNF-alpha production” value was 108%.
Consider `CC(/C=C/c1cccc(Oc2ccc(F)cc2)c1)N(O)C(N)=O` (centres undefined), for which the “HMGB1-induced TNF-alpha production” value (compound concentration: 3 uM) was 85.6%.
On to `c1ccc2c3c([nH]c2c1)C1C2CCC(C4CCCNC42)N1CC3` (centres undefined) [Nitrarine dihydrochloride], for which the “HMGB1-induced TNF-alpha production” value (compound concentration: 3 uM) is 121%.
